Measurements reported in patent US10563263B2, “Genetic polymorphisms associated with statin response and cardiovascular diseases, methods of detection and uses thereof” (CELERA CORPORATION, priority 2010, dated 2020).
Further values from the same series stand in other lists.

Test system: CHD
Experiment: Meta-analysis of CARE and WOSCOPS combined, synergy index, CHD endpoint
Assay type: in vivo, human
Description: Tables 4-5 provide meta-analyses of CARE and WOSCOPS combined (2nd section of each table) for two endpoints (CHD and CVD) and three genetic models (dominant, recessive, and additive), as well as logistic regression analyses of CARE (3rd section of each table) and WOSCOPS (4th section of each table) individually.
Tables 12 and 17 provide results of meta-analysis of the CARE and WOSCOPS sample sets combined by direct genotyping and by imputing genotypes.
“P” indicates the p-value, and “P(R)” (or “P.R.”) indicates the p-value random effect. Both of these are p-values corresponding to a statistical test of whether the combined synergy index is equal to one but use different assumptions to derive the p-value. “P” is calculated using a fixed effects model, and “P(R)” is calculated using a random effects model.
“OR” indicates the odds ratio (synergy index) calculated from a fixed effects model, and “OR(R)” (or “OR.R.”) indicates the odds ratio (synergy index) calculated from a random effects model.

[1] = rs1003148 allele C ADDITIVE Imputed
[2] = rs1003148 allele C GENOTYPIC Imputed
[3] = rs1012924 allele G ADDITIVE Imputed
[4] = rs1012924 allele G DOMINANT Imputed
[5] = rs1016030 allele G ADDITIVE Genotyped
[6] = rs1016030 allele G GENOTYPIC Genotyped
[7] = rs1017558 allele A RECESSIVE Imputed
[8] = rs1032188 allele G GENOTYPIC Imputed
[9] = rs1032188 allele G RECESSIVE Imputed
[10] = rs1065639 allele C DOMINANT Imputed
[11] = rs1116596 allele T DOMINANT Imputed

CC[C@H](C)C(=O)O[C@H]1C[C@H](O)C=C2C=C[C@H](C)[C@H](CC[C@@H](O)C[C@@H](O)CC(=O)O)[C@H]21 [Pravastatin, pravastatin]
OR(R) (rs915491 allele C DOMINANT Imputed, P(R) 0.0002054): 1.5426
OR (rs915493 allele T DOMINANT Imputed, P 0.0002054): 1.5426
OR(R) (rs915493 allele T DOMINANT Imputed, P(R) 0.0002054): 1.5426
OR (rs915494 allele A ADDITIVE Imputed, P 0.001238): 1.3527
OR(R) (rs915494 allele A ADDITIVE Imputed, P(R) 0.001238): 1.3527
OR (rs915494 allele A DOMINANT Imputed, P 0.0002045): 1.5574
OR(R) (rs915494 allele A DOMINANT Imputed, P(R) 0.0002045): 1.5574
OR (rs917295 allele G DOMINANT Imputed, P 0.0005579): 0.6664
OR(R) (rs917295 allele G DOMINANT Imputed, P(R) 0.0005579): 0.6664
Meta-analysis OR (rs936671, A1 (non-ref) G, A2 (ref) A): 0.70
Meta-analysis OR (rs945020 allele A vs G (ref)): 0.65
OR (rs966583 allele A ADDITIVE Imputed, P 9.56E−05): 0.7127
OR(R) (rs966583 allele A ADDITIVE Imputed, P(R) 9.56E−05): 0.7127
OR (rs966583 allele A DOMINANT Imputed, P 4.65E−05): 0.6082
OR(R) (rs966583 allele A DOMINANT Imputed, P(R) 4.65E−05): 0.6082
OR (rs980263 allele T GENOTYPIC Imputed, P 6.16E−05): 2.059
OR(R) (rs980263 allele T GENOTYPIC Imputed, P(R) 6.16E−05): 2.059
OR (rs980264 allele T GENOTYPIC Imputed, P 6.16E−05): 2.059
OR(R) (rs980264 allele T GENOTYPIC Imputed, P(R) 6.16E−05): 2.059
OR (rs987296 allele T GENOTYPIC Imputed, P 7.90E−05): 2.0683
OR(R) (rs987296 allele T GENOTYPIC Imputed, P(R) 7.90E−05): 2.0683
OR (rs992695 allele C ADDITIVE Imputed, P 2.92E−05): 0.6695
OR(R) (rs992695 allele C ADDITIVE Imputed, P(R) 2.92E−05): 0.6695
OR (rs992695 allele C DOMINANT Imputed, P 2.06E−05): 0.6059
OR(R) (rs992695 allele C DOMINANT Imputed, P(R) 2.06E−05): 0.6059
OR [1]: 0.706
OR(R) [1]: 0.706
OR [2]: 0.4899
OR(R) [2]: 0.4899
OR [3]: 0.5369
OR(R) [3]: 0.5369
OR [4]: 0.5009
OR(R) [4]: 0.5009
OR [5]: 1.4487
OR(R) [5]: 1.4487
OR [6]: 2.1351
OR(R) [6]: 2.1351
OR [7]: 2.016
OR(R) [7]: 2.016
OR [8]: 0.411
OR(R) [8]: 0.3885
OR [9]: 0.4495
OR(R) [9]: 0.4153
Meta-analysis OR (rs1051344 allele G vs C (ref)): 0.64
OR [10]: 1.7059
OR(R) [10]: 1.7059
OR [11]: 0.5722
OR(R) [11]: 0.5722
Meta-analysis OR (rs1167245 allele A vs G (ref)): 0.62
OR (rs1247340 allele C ADDITIVE Imputed, fixed effect): 1.5296
OR(R) (rs1247340 allele C ADDITIVE Imputed, random effect): 1.5296
OR (rs1247340 allele C DOMINANT Imputed, fixed effect): 1.7083
OR(R) (rs1247340 allele C DOMINANT Imputed, random effect): 1.7083
OR (rs1247341 allele C ADDITIVE Imputed, fixed effect): 1.5303
OR(R) (rs1247341 allele C ADDITIVE Imputed, random effect): 1.5303
OR (rs1247341 allele C DOMINANT Imputed, fixed effect): 1.7098
OR(R) (rs1247341 allele C DOMINANT Imputed, random effect): 1.7098
OR (rs1247343 allele C DOMINANT Imputed, fixed effect): 1.6756
OR(R) (rs1247343 allele C DOMINANT Imputed, random effect): 1.6756
OR (rs1330052 allele G GENOTYPIC Imputed, fixed effect): 2.0747
OR(R) (rs1330052 allele G GENOTYPIC Imputed, random effect): 2.0747
OR (rs1335721 allele A RECESSIVE Imputed, fixed effect): 0.5252
OR(R) (rs1335721 allele A RECESSIVE Imputed, random effect): 0.5252
OR (rs1336382 allele T DOMINANT Imputed, fixed effect): 1.5804
OR(R) (rs1336382 allele T DOMINANT Imputed, random effect): 1.5804
OR (rs1336383 allele T DOMINANT Imputed, fixed effect): 1.5819
OR(R) (rs1336383 allele T DOMINANT Imputed, random effect): 1.5819
OR (rs1336407 allele T DOMINANT Imputed, fixed effect): 1.5612
OR(R) (rs1336407 allele T DOMINANT Imputed, random effect): 1.5612
OR (rs1336409 allele T DOMINANT Imputed, fixed effect): 1.5612
OR(R) (rs1336409 allele T DOMINANT Imputed, random effect): 1.5612
OR (rs1336596 allele A DOMINANT Imputed, fixed effect): 0.5875
OR(R) (rs1336596 allele A DOMINANT Imputed, random effect): 0.5875
OR (rs1349284 allele C GENOTYPIC Imputed, fixed effect): 2.0683
OR(R) (rs1349284 allele C GENOTYPIC Imputed, random effect): 2.0683
OR (rs1355715 allele T ADDITIVE Imputed, fixed effect): 0.5021
OR(R) (rs1355715 allele T ADDITIVE Imputed, random effect): 0.5021
OR (rs1357696 allele A GENOTYPIC Imputed, fixed effect): 2.0503
OR(R) (rs1357696 allele A GENOTYPIC Imputed, random effect): 2.0503
OR (rs1357698 allele A GENOTYPIC Imputed, fixed effect): 2.0604
OR(R) (rs1357698 allele A GENOTYPIC Imputed, random effect): 2.0604
OR (rs1357699 allele T GENOTYPIC Imputed, fixed effect): 2.0604
OR(R) (rs1357699 allele T GENOTYPIC Imputed, random effect): 2.0604
OR (rs1363273 allele C RECESSIVE Imputed, fixed effect): 0.5543
OR(R) (rs1363273 allele C RECESSIVE Imputed, random effect): 0.5543
OR (rs1373601 allele A DOMINANT Imputed, fixed effect): 0.6152
OR(R) (rs1373601 allele A DOMINANT Imputed, random effect): 0.6152
OR (rs1375829 allele C GENOTYPIC Imputed, fixed effect): 2.0683
OR(R) (rs1375829 allele C GENOTYPIC Imputed, random effect): 2.0683
OR (rs1395748 allele G DOMINANT Imputed, fixed effect): 0.6306
OR(R) (rs1395748 allele G DOMINANT Imputed, random effect): 0.6306
OR (rs1414865 allele T DOMINANT Imputed, fixed effect): 1.5599
OR(R) (rs1414865 allele T DOMINANT Imputed, random effect): 1.5599
OR (rs1414873 allele A DOMINANT Imputed, fixed effect): 1.5612
OR(R) (rs1414873 allele A DOMINANT Imputed, random effect): 1.5612
OR (rs1414876 allele C DOMINANT Imputed, fixed effect): 1.5612
OR(R) (rs1414876 allele C DOMINANT Imputed, random effect): 1.5612
OR (rs1424643 allele G ADDITIVE Imputed, fixed effect): 1.4199
